Data on 15 targets can be found in the supplement of paper PMC10849652.

The chains behind the UniProt entries cited, without tags or fusion partners. Where a name states a change or a piece, a line headed by the entry shows the natural chain unless it says otherwise.
UniProt Q9BVS4: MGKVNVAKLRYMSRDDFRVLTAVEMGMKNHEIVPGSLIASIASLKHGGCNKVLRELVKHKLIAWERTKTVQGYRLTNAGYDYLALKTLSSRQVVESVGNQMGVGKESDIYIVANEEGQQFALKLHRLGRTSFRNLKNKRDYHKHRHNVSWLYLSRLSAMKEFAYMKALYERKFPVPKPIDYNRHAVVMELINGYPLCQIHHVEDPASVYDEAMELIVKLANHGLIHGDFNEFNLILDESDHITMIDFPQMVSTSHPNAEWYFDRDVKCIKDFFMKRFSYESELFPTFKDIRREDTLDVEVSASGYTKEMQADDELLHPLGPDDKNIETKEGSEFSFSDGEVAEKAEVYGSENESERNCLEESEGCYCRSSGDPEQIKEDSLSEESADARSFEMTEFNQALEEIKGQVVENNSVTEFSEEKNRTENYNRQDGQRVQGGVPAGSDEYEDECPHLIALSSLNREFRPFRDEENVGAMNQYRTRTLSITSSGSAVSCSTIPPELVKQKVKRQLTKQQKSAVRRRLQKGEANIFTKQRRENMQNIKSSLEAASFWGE
UniProt Q5XPI4: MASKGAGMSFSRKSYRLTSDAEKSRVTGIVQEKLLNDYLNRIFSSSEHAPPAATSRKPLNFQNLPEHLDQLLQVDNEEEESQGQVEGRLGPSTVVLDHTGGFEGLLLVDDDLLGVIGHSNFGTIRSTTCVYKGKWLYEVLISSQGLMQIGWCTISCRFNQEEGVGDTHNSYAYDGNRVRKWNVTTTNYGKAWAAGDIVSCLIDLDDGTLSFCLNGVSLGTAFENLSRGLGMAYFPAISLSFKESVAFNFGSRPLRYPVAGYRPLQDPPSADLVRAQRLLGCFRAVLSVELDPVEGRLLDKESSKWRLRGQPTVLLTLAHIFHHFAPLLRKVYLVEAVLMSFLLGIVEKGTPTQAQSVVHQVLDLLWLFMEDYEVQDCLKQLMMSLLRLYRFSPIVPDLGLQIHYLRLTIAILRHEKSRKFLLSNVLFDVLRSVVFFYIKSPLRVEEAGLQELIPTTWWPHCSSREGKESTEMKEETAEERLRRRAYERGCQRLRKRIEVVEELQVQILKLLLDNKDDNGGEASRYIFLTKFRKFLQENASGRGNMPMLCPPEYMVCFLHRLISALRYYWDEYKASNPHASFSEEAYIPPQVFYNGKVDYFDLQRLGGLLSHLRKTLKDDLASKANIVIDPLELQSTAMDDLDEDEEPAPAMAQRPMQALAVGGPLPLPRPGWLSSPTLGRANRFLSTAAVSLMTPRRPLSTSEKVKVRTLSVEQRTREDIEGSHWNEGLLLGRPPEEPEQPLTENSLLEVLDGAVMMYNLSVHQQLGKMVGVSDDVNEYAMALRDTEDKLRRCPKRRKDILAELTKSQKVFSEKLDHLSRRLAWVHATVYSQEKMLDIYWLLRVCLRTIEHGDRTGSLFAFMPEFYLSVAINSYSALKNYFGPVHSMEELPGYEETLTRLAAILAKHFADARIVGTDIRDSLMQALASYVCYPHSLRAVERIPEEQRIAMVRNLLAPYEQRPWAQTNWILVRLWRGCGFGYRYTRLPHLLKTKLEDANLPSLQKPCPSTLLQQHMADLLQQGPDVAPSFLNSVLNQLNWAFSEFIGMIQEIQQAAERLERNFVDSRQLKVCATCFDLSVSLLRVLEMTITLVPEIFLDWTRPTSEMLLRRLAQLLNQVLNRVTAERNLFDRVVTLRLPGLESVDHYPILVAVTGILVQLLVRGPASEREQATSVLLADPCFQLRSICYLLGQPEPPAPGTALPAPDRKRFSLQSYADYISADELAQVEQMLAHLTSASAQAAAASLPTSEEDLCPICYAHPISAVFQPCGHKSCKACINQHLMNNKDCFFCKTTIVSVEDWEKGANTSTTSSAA
UniProt Q96BH1: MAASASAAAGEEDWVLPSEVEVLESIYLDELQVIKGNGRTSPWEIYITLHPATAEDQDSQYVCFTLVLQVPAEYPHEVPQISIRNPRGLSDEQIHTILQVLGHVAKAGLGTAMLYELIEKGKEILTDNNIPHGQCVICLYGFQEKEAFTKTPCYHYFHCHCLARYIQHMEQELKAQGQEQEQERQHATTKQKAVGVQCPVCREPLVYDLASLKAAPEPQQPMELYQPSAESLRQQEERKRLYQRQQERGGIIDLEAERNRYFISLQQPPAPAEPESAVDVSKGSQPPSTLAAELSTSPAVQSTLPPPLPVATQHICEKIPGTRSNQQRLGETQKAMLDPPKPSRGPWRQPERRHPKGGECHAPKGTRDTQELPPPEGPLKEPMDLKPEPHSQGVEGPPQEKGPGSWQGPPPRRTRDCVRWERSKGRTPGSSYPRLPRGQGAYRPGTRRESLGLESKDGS
UniProt Q05823: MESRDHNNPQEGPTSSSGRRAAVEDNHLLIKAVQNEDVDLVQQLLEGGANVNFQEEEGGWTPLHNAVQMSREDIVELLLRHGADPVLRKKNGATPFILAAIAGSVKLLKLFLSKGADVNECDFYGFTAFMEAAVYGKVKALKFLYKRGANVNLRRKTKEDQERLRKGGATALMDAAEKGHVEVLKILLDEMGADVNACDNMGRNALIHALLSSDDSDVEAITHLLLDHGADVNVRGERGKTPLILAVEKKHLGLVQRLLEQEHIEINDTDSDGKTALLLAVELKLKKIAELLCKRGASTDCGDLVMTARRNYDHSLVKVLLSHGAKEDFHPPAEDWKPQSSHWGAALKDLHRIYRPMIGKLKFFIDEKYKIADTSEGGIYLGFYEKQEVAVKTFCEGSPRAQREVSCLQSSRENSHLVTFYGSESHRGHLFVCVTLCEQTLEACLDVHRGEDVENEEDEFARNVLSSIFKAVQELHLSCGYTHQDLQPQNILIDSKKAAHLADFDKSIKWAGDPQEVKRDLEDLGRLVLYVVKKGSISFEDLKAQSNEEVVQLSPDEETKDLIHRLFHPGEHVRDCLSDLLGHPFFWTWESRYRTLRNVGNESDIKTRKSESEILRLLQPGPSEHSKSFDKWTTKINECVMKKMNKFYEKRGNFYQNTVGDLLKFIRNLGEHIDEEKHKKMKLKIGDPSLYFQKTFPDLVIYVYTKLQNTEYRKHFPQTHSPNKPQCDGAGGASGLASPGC
UniProt Q9UBS8: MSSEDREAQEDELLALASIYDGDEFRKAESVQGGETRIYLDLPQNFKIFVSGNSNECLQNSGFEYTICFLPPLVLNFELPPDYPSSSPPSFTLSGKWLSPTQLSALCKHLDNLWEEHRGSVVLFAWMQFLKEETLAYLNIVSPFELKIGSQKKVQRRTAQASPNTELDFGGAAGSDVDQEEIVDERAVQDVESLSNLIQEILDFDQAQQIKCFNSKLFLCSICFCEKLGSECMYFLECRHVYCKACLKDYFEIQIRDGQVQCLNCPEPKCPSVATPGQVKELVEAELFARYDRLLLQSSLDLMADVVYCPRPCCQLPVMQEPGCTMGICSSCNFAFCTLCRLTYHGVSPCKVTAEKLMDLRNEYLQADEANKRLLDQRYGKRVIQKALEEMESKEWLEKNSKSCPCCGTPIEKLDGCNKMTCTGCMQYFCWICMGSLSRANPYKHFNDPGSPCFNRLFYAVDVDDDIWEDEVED
UniProt Q9P0P0: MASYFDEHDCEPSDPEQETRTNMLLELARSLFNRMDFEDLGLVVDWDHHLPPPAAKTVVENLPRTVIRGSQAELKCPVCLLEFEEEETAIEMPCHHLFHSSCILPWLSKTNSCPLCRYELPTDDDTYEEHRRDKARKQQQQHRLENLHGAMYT
UniProt Q5EBL4: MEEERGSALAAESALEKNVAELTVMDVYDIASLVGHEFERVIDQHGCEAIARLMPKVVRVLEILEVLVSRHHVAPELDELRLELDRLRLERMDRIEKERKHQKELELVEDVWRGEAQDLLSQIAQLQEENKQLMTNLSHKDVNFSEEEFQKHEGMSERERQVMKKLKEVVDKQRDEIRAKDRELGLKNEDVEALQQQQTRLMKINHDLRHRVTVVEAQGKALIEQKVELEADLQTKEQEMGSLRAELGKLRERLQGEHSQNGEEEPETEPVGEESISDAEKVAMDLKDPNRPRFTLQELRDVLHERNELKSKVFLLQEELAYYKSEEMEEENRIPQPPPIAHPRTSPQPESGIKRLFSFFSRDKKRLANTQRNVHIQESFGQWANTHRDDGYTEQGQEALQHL
UniProt O43353, whole entry, looked up: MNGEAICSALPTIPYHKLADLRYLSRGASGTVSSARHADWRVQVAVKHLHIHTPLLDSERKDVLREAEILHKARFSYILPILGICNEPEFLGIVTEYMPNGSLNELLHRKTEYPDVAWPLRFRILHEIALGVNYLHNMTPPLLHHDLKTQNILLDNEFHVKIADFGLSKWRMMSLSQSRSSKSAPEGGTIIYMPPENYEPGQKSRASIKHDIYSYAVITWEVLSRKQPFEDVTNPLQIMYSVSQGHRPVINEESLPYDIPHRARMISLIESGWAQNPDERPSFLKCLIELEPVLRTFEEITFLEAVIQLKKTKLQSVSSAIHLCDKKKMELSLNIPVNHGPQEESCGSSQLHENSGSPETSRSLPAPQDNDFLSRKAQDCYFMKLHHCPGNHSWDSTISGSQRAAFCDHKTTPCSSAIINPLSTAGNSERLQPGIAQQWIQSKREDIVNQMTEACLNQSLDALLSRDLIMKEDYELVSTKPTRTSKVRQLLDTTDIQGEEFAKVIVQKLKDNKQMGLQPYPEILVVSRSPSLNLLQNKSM
UniProt Q96EP0: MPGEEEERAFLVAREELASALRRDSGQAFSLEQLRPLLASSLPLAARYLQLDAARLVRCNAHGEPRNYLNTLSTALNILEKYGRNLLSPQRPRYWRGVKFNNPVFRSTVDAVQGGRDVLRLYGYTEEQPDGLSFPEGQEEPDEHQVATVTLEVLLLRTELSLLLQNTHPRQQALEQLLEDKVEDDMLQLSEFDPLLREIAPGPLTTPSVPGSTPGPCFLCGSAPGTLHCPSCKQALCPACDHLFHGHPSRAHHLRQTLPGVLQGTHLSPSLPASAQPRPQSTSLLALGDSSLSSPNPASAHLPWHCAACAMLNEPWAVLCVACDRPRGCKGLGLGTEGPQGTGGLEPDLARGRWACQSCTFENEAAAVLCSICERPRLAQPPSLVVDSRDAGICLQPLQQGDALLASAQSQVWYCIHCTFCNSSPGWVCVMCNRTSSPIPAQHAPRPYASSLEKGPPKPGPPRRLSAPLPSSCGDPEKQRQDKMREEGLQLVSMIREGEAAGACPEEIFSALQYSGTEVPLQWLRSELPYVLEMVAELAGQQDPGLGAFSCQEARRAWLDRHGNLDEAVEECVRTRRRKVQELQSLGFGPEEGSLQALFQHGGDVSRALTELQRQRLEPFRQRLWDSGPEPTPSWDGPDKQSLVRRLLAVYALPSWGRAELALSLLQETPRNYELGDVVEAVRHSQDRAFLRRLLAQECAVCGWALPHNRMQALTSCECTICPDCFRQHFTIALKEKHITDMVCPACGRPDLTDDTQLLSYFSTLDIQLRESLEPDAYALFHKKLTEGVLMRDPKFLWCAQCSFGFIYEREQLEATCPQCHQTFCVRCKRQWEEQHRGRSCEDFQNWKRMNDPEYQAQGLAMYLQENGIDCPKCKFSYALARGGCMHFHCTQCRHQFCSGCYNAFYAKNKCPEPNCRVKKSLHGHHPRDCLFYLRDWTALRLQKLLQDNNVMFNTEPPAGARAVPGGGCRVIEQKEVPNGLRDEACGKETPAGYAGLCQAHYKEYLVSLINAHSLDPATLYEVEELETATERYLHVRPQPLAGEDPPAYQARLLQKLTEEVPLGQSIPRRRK
UniProt Q6NUQ1: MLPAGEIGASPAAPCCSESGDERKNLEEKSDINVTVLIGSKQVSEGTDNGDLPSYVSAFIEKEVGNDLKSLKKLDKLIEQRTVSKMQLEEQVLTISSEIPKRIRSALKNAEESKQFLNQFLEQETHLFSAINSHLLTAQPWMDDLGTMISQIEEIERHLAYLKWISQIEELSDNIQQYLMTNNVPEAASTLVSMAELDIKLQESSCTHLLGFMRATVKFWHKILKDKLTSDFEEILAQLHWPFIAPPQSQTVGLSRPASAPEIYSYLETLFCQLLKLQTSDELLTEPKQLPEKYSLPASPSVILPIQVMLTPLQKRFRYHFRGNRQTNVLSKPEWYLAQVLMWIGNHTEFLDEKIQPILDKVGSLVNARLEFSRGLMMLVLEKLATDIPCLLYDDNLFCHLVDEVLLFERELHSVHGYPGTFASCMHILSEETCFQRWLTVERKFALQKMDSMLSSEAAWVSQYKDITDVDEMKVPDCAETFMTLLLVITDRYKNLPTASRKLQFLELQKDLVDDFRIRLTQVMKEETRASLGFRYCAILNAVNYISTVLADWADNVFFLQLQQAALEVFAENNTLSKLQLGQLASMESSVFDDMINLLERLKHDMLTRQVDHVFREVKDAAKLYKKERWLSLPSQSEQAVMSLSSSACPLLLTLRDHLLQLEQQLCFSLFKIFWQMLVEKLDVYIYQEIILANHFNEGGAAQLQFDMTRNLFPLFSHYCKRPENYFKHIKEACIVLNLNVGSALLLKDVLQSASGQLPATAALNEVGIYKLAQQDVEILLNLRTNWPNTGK

The other results are listed elsewhere or left out.

Holding throughout (experiment): log2 fold change, soluble protein after heating vs DMSO (PISA); higher = thermal stabilisation; K562 lysate, 10 uM; active = over 0.2 and 3.5 SD of the protein, either way, in both replicates (recomputed)
Compound in one assay: CS(=O)(=O)CCNCc1ccc(-c2ccc3ncnc(Nc4ccc(OCc5cccc(F)c5)c(Cl)c4)c3c2)o1 [lapatinib]
In a few lines:
(§1)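 Values give the log-two fold change in thermal stability against solvent controls, from duplicates. Crude K562 extract at 1 mg/mL protein, made by dounce homogenisation in PBS pH 7.4 with 1 mM MgCl2, was treated with 10 μM compound for 30 min. After 3 min heating across 48°C-58°C, aliquots were pooled, adjusted to 0.5% NP-40 at 4°C and centrifuged at 21,000xg for 90 min. The supernatant was measured by TMTpro 16plex LC-MS/MS with channel sums equalised.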

Compound in another assay: CS(=O)(=O)N1CCN(Cc2cc3nc(-c4cccc5[nH]ncc45)nc(N4CCOCC4)c3s2)CC1 [pictilisib]
In outline: as §1

Compound in a further assay: C[C@@H](Oc1cc(-c2cnn(C3CCNCC3)c2)cnc1N)c1c(Cl)ccc(F)c1Cl [crizotinib]
In a few lines:
as §1

Compound in assay [1]: C[C@H](C1=CC=C(C=C1)C(=O)NC2=C3C=CNC3=NC=C2)N
In a few lines: as §1

Compound in a further assay: C[C@H](Nc1ncnc2nc[nH]c12)c1cc2cccc(Cl)c2c(=O)n1-c1ccccc1 [duvelisib]
In outline:
as §1

Compound in another assay: Cc1cc(Nc2cc(CN3CCOCC3)c3nc(C)c(Cc4ccc(Cl)cc4F)n3n2)n[nH]1 [gandotinib]
In a few lines: as §1

Compound in the next assay: Cc1cc(Nc2cc(N3CCN(C)CC3)nc(Sc3ccc(NC(=O)C4CC4)cc3)n2)n[nH]1 [tozasertib]
In a few lines: as §1

Compound in a further assay: Cc1ccc(-n2nc(C(C)(C)C)cc2NC(=O)Nc2ccc(OCCN3CCOCC3)c3ccccc23)cc1 [doramapimod]
In a few lines:
as §1

Compound in another assay: Cc1ccc(NC(=O)c2ccc(CN3CC[C@H](N(C)C)C3)c(C(F)(F)F)c2)cc1Nc1nccc(-c2cncnc2)n1 [bafetinib]
In a few lines: as §1

Compound in assay [2]: Cc1cccc(CC(=O)N2CCc3c2ccc(-c2cn(C)c4ncnc(N)c24)c3F)n1
In a few lines: as §1

As to RPL26L1 (UniProt Q9UNX3), the log2 fold change with lapatinib was inactive: -0.009; with pictilisib it was inactive: 0.008; with crizotinib, inactive: 0.064; in [1], inactive: 0.18; in the assay with duvelisib, inactive: -0.01; with gandotinib, inactive: -0.104. Moreover, the log2 fold change in the assay with tozasertib is inactive: 0.029; with doramapimod, inactive: -0.046; with bafetinib, inactive: 0.096; in assay [2] it was inactive: -0.144.
On to RIOK2 (UniProt Q9BVS4), for which the log2 fold change with lapatinib was inactive: -0.032; in the assay with pictilisib it was inactive: 0.269; with crizotinib it was inactive: 0.047; in [1] it was inactive: -0.028; in the assay with duvelisib it was inactive: 0.016; with gandotinib, active: 0.829. Further, the log2 fold change with tozasertib is inactive: -0.011; with doramapimod it was inactive: -0.028; in the assay with bafetinib, inactive: 0.093; in [2] it was inactive: -0.012.
Take RNF123 (UniProt Q5XPI4): the log2 fold change with lapatinib is inactive: -0.013; with pictilisib, inactive: -0.029; with crizotinib, inactive: -0.015; in assay [1] it was inactive: -0.04; with duvelisib, inactive: -0.068; with gandotinib, inactive: -0.122. Moreover, the log2 fold change in the assay with tozasertib was inactive: 0.029; with doramapimod, inactive: 0.039; in the assay with bafetinib, inactive: -0.002; in [2], inactive: 0.011.
Take RNF25 (UniProt Q96BH1): the log2 fold change is inactive: -0.006 in the assay with lapatinib; inactive: 0.014 with pictilisib; inactive: 0.015 with crizotinib; inactive: -0.049 in [1]; inactive: 0.008 in the assay with duvelisib; inactive: 0.046 in the assay with gandotinib. Also, the log2 fold change with tozasertib was inactive: -0.031; with doramapimod it was inactive: -0.018; in the assay with bafetinib, inactive: -0.014; in assay [2] it was inactive: -0.004.
RPL14 (UniProt P50914): the log2 fold change with lapatinib was inactive: -0.016; with pictilisib it was inactive: -0.007; in the assay with crizotinib, inactive: 0.039; in [1], inactive: 0.04; with duvelisib, inactive: 0.011; with gandotinib it was inactive: -0.036. The log2 fold change is inactive: -0.065 with tozasertib, inactive: -0.129 with doramapimod, inactive: 0.033 with bafetinib and inactive: -0.022 in assay [2].
On to RNASEL (UniProt Q05823), for which the log2 fold change with lapatinib is inactive: -0.034; with pictilisib it was inactive: -0.076; in the assay with crizotinib it was inactive: -0.04; in assay [1] it was inactive: -0.011; with duvelisib, inactive: 0.007; in the assay with gandotinib it was inactive: -0.068. The log2 fold change with tozasertib was inactive: -0.014; with doramapimod, inactive: -0.007; with bafetinib, inactive: -0.018; in [2], inactive: -0.013.
For RPL30 (UniProt P62888), the log2 fold change with lapatinib is inactive: -0.004; with pictilisib, inactive: -0.015; with crizotinib it was inactive: -0.017; in assay [1], inactive: -0.046; with duvelisib, inactive: 0.007; in the assay with gandotinib it was inactive: 0.017. Moreover, the log2 fold change with tozasertib is inactive: -0.02; in the assay with doramapimod, inactive: 0.048; with bafetinib, inactive: -0.032; in [2], inactive: 0.034.
As for RNF17 (UniProt Q9BXT8), the log2 fold change in the assay with lapatinib was inactive: -0.02; in the assay with pictilisib, inactive: 0.031; with crizotinib, inactive: 0.105; in assay [1], inactive: 0.08; with duvelisib, inactive: -0.071; with gandotinib, inactive: 0.028. For the same target, the log2 fold change in the assay with tozasertib is inactive: 0.119; with doramapimod, inactive: 0.006; with bafetinib, inactive: -0.285; in assay [2], inactive: -0.257.
As for RNF14 (UniProt Q9UBS8), the log2 fold change was inactive: -0.026 in the assay with lapatinib; inactive: -0.018 with pictilisib; inactive: -0.046 with crizotinib; inactive: 0.011 in assay [1]; inactive: 0.016 with duvelisib; inactive: -0.019 with gandotinib. Further, the log2 fold change with tozasertib was inactive: 0; with doramapimod, inactive: 0.069; with bafetinib it was inactive: -0.045; in assay [2] it was inactive: 0.026.
Take RPL36A (UniProt P83881): the log2 fold change with lapatinib was inactive: -0.028; with pictilisib it was inactive: 0.066; with crizotinib it was inactive: -0.009; in assay [1], inactive: -0.034; with duvelisib, inactive: -0.038; with gandotinib, inactive: 0.036. Besides, the log2 fold change with tozasertib was inactive: -0.037; in the assay with doramapimod, inactive: -0.007; with bafetinib, inactive: -0.063; in [2], inactive: 0.043.
With RNF181 (UniProt Q9P0P0), the log2 fold change in the assay with lapatinib is inactive: 0.079; with pictilisib, inactive: -0.069; with crizotinib, inactive: 0.049; in assay [1] it was inactive: 0.057; in the assay with duvelisib it was inactive: 0.028; with gandotinib, inactive: -0.042. Besides, the log2 fold change was inactive: 0.054 with tozasertib, inactive: 0.057 with doramapimod, inactive: -0.03 in the assay with bafetinib and inactive: 0.01 in assay [2].
As for RILPL1 (UniProt Q5EBL4), the log2 fold change was inactive: -0.009 with lapatinib; inactive: -0.026 with pictilisib; inactive: -0.009 in the assay with crizotinib; inactive: -0.042 in assay [1]; inactive: 0.031 with duvelisib; inactive: 0.028 with gandotinib. The log2 fold change is inactive: -0.003 in the assay with tozasertib, inactive: -0.012 in the assay with doramapimod, inactive: -0.017 in the assay with bafetinib and inactive: 0.007 in assay [2].
As to RIPK2 (UniProt O43353), the log2 fold change with lapatinib was inactive: 0.019; in the assay with pictilisib, inactive: -0.088; with crizotinib it was inactive: 0.029; in assay [1], inactive: 0.105; in the assay with duvelisib, inactive: -0.001; in the assay with gandotinib, inactive: -0.033. Moreover, the log2 fold change in the assay with tozasertib is inactive: 0; with doramapimod, inactive: 0.06; with bafetinib it was inactive: 0.046; in [2], inactive: -0.095.
Turning to RNF31 (UniProt Q96EP0), the log2 fold change with lapatinib was inactive: 0.082; in the assay with pictilisib, inactive: -0.051; in the assay with crizotinib, inactive: -0.009; in assay [1] it was inactive: 0.014; with duvelisib, inactive: -0.008; in the assay with gandotinib, inactive: -0.006. Also, the log2 fold change with tozasertib is inactive: 0.022; in the assay with doramapimod, inactive: -0.034; with bafetinib it was inactive: 0.053; in assay [2], inactive: -0.014.
As to RINT1 (UniProt Q6NUQ1), the log2 fold change is inactive: -0.069 in the assay with lapatinib; inactive: -0.065 with pictilisib; inactive: -0.06 in the assay with crizotinib; inactive: -0.058 in [1]; inactive: 0.046 in the assay with duvelisib; inactive: -0.039 with gandotinib. Also, the log2 fold change was inactive: 0.025 with tozasertib, inactive: 0.069 with doramapimod, inactive: -0.058 in the assay with bafetinib and inactive: 0.132 in assay [2].
